Data: article PMC4239116, “Crystal Structure of Cytomegalovirus IE1 Protein Reveals Targeting of TRIM Family Member PML via Coiled-Coil Interactions” (PLoS Pathogens, 2014)
No constants are given. Whether binding was seen depends on the method and setting. For some assays here: In cells and extracts the contact can be indirect. Some entries that bind do so weakly or less than the wild type.

The chains behind the UniProt entries cited, without tags or fusion partners. Where a name states a change or a piece, a line headed by the entry shows the natural chain unless it says otherwise.
UniProt Q0PF16: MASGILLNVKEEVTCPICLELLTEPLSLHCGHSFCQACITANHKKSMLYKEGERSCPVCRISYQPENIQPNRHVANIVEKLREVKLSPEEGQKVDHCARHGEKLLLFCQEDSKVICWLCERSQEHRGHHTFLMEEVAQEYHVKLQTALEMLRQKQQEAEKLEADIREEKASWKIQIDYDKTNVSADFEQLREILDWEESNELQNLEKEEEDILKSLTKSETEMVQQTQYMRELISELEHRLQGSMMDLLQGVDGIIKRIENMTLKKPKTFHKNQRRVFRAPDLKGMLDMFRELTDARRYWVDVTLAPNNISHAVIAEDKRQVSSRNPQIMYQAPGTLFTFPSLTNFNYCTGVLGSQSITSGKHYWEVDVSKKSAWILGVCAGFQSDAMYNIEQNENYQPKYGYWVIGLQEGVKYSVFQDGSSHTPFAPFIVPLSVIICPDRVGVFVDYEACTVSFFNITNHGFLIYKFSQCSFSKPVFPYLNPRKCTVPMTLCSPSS
UniProt P13202: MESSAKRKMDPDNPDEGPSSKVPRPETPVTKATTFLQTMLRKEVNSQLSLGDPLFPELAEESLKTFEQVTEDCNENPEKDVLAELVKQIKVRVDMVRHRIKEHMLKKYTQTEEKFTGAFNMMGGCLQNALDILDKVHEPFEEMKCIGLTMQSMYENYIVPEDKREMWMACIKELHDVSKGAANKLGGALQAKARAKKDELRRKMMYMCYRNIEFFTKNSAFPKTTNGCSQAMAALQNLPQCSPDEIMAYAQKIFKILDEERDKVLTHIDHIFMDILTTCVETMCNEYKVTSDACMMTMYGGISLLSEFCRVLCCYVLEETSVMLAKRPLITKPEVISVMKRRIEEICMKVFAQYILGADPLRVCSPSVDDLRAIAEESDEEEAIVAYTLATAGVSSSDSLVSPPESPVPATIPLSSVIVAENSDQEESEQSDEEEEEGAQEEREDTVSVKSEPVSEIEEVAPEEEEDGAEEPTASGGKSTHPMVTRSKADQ

Legend:
[1] = biological target: FLAG-tagged PML (isoform VI) (UniProt P29590); assay: co-IP
[2] = biological target: FLAG-tagged rhesus macaque TRIM5α (rhesus macaque) (UniProt Q0PF16); assay: co-IP
[3] = biological target: PML, yeast two-hybrid fusion (UniProt P29590); assay: two-hybrid; S. cerevisiae Y153, pGBT9 and pGAD424 fusions; XGal filter lift assay
[4] = biological target: PML, yeast two-hybrid fusion (UniProt P29590); assay: two-hybrid; S. cerevisiae Y153, pGBT9 and pGAD424 fusions; β-galactosidase activity quantified with ONPG, background of the empty vectors subtracted

Myc-tagged hIE1(1-382) (from UniProt P13202 1-382) (domain or fragment)
binding [1]: binds
binding [2]: binds

full-length hIE1, yeast two-hybrid fusion (from UniProt P13202 1-491)
binding [3]: binds

hIE1_(CORE)(14-382), yeast two-hybrid fusion (from UniProt P13202 14-382) (domain or fragment)
binding [3]: binds
binding [4]: binds
